{"source": "patent US20170305882A1", "about": "“BENZYL SUBSTITUTED INDAZOLES AS BUB1 KINASE INHIBITORS” (Bayer Pharma Aktiengesellschaft, priority 2014, published 2017)", "tested_on": "HeLa human cervical tumor cells", "assay": "Proliferation Assay (HeLa + Paclitaxel)", "assay_type": "cell-based", "conditions": "3 nM paclitaxel, test substance 92 hours; read-out: Biological Assay 3: Proliferation Assay (HeLa + Paclitaxel) IC50", "text": "Proliferation Assay (HeLa+Paclitaxel):", "note": "Several values for one entry are separate records, joined by “and”; a condition that tells them apart may be missing. Identical values can stand only once. At least one read-out could not be matched to a standard name with certainty."}
{"smiles": "CCOc1cc(F)c(Cn2nc(-c3ncc(OCCCO)c(Nc4ccncc4C)n3)c3ccccc32)c(F)c1", "note": "[Example 2-1-2, 3-({2-[1-(4-ethoxy-2,6-difluorobenzyl)-1H-indazol-3-yl]-4-[(3-methylpyridin-4-yl)amino]pyrimidin-5-yl}oxy)propan-1-ol]", "values": [{"measurement": "IC50", "result": "50 nM and < 100 nM"}]}
